Results are given in words; binding and its absence hold for the method and conditions named. Binding seen in cells or lysates may run through a third protein. Some binding calls cover weakened binding; strength is not graded here. For some of these results: Where a sequence is shown, tags or fusion partners need not be part of it. Blank lines part the entries; values can stand above or below the molecule they belong to.
Key:
[1] = target: T1, endogenous IRS4 (immortalised human myoblasts) (human (endogenous in immortalised human myoblasts)) (UniProt O14654); assay: co-IP; endogenous proteins; immortalised human myoblasts lysed 48 h post-seeding; IP with anti-IRS4 antibody, protein A sepharose; Western blot
T1 sequence: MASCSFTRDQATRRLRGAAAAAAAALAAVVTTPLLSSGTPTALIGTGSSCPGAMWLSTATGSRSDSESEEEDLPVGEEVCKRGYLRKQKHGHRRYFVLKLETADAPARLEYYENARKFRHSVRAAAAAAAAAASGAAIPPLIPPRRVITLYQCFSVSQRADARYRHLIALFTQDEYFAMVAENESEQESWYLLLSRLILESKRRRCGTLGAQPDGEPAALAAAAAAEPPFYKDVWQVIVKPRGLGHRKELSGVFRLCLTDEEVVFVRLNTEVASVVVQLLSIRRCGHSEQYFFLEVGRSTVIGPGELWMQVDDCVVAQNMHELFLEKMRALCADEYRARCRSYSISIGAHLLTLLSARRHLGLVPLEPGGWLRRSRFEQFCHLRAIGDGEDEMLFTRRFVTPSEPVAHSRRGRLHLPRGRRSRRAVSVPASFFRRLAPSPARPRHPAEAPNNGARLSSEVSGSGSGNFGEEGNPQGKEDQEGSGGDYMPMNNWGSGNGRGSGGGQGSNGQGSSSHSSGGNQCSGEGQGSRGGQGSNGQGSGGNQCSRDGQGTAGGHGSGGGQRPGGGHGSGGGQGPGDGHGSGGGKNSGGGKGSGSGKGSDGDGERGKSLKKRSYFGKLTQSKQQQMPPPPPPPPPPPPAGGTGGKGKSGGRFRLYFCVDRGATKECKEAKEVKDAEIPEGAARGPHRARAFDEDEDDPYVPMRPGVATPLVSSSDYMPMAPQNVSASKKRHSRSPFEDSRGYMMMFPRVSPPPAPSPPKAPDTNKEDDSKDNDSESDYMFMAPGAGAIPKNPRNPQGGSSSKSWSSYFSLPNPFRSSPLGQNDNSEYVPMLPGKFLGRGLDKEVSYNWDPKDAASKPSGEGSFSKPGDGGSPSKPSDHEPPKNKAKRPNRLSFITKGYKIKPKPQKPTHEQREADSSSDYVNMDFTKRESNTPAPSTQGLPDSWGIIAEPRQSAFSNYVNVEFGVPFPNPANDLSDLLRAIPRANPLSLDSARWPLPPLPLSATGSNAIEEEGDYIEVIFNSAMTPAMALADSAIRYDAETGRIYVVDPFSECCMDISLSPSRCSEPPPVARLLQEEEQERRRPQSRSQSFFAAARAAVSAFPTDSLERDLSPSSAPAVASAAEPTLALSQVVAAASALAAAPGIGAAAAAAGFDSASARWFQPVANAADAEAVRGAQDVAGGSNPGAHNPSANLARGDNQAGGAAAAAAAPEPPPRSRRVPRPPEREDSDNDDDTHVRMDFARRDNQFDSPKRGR

Sequences of proteins named here, by UniProt entry; tags and fusion partners are left off. Residues count along the entry.
UniProt Q13873, residues 27-1038: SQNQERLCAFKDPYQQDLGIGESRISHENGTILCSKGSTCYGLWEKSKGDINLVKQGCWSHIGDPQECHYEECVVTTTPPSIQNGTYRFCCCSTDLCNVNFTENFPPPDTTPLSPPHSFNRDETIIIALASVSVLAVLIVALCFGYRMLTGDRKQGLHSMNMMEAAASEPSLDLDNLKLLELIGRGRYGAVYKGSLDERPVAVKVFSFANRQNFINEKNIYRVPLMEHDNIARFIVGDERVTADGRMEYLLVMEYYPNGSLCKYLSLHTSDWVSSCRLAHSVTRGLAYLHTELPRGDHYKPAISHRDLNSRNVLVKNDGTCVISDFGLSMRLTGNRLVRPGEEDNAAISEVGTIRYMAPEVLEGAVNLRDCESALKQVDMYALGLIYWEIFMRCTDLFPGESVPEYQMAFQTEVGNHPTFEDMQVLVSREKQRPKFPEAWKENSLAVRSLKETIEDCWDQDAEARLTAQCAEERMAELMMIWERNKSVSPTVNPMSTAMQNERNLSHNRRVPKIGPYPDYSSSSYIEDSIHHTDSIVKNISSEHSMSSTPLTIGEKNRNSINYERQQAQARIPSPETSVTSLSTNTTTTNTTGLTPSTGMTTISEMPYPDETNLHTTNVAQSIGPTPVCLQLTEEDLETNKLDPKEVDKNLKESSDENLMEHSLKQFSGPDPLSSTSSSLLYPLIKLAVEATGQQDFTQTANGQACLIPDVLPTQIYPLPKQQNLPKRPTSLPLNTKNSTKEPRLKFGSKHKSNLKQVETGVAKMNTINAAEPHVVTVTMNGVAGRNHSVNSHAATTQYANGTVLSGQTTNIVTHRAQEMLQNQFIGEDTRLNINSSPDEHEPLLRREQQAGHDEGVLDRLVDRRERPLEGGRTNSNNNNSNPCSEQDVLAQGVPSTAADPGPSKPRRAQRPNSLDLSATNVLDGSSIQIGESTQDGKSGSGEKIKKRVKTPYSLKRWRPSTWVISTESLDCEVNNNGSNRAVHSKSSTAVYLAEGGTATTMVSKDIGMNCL
UniProt Q15797: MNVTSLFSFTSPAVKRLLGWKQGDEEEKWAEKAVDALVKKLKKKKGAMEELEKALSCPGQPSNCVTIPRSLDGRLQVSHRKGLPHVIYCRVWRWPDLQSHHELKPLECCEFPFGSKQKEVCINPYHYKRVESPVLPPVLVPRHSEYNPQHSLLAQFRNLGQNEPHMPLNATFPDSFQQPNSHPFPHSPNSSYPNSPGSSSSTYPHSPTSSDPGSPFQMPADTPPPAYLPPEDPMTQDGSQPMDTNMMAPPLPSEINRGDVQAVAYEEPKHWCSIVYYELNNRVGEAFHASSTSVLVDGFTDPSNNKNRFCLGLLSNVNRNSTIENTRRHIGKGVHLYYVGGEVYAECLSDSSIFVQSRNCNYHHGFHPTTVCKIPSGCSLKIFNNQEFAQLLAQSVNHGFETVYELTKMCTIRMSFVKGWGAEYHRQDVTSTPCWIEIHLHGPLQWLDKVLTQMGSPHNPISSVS
UniProt P35569: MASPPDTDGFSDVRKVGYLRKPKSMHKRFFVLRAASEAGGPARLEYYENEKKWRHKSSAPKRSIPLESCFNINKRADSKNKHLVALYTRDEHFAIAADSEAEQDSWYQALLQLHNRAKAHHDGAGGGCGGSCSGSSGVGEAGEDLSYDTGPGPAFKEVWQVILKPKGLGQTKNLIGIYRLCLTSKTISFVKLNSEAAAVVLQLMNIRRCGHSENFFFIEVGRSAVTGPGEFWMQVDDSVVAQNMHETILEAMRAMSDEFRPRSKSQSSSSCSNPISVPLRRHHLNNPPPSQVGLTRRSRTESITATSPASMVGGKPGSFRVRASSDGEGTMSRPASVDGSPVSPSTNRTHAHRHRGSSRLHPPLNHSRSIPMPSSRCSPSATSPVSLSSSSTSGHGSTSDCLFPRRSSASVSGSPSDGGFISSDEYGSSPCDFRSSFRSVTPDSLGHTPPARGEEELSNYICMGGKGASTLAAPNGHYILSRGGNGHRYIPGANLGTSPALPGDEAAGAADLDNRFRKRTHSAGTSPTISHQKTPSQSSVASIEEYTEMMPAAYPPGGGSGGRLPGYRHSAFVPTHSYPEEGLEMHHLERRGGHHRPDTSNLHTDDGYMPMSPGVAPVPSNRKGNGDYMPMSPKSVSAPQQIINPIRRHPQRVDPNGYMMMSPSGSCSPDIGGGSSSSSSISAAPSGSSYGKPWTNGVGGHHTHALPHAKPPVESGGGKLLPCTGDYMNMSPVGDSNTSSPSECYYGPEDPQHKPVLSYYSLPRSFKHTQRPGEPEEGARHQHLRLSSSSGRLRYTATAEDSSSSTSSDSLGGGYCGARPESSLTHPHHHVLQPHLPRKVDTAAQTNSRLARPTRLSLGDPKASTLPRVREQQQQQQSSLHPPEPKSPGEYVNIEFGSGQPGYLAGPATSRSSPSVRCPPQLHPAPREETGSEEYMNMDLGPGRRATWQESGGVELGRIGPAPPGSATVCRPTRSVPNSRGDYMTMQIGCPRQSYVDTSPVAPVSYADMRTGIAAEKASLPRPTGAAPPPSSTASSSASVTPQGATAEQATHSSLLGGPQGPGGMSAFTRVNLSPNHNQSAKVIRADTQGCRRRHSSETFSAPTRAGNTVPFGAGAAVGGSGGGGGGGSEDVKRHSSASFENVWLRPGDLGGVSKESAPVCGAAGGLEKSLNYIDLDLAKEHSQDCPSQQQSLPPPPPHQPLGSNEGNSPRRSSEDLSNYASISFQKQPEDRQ

[2] = target: T1, endogenous IRS4 (immortalised human myoblasts) (human (endogenous in immortalised human myoblasts)); assay: proximity ligation; Duolink in situ PLA in intact immortalised human myoblasts, endogenous proteins; antibodies to BMPRII, IRS4 (EP907Y), Smad1
[3] = target: T2, myc-tagged IRS4 (IRS4-myc), wild type (mouse) (UniProt Q9Z0Y7); assay: co-IP; transfected HEK293T cells, lysed directly or starved 6 h and stimulated with 10 nM BMP2; RIPA or TNE buffer; IP with anti-myc (9E10) or anti-IRS4 antibody overnight, protein A sepharose; Western blot
T2 sequence: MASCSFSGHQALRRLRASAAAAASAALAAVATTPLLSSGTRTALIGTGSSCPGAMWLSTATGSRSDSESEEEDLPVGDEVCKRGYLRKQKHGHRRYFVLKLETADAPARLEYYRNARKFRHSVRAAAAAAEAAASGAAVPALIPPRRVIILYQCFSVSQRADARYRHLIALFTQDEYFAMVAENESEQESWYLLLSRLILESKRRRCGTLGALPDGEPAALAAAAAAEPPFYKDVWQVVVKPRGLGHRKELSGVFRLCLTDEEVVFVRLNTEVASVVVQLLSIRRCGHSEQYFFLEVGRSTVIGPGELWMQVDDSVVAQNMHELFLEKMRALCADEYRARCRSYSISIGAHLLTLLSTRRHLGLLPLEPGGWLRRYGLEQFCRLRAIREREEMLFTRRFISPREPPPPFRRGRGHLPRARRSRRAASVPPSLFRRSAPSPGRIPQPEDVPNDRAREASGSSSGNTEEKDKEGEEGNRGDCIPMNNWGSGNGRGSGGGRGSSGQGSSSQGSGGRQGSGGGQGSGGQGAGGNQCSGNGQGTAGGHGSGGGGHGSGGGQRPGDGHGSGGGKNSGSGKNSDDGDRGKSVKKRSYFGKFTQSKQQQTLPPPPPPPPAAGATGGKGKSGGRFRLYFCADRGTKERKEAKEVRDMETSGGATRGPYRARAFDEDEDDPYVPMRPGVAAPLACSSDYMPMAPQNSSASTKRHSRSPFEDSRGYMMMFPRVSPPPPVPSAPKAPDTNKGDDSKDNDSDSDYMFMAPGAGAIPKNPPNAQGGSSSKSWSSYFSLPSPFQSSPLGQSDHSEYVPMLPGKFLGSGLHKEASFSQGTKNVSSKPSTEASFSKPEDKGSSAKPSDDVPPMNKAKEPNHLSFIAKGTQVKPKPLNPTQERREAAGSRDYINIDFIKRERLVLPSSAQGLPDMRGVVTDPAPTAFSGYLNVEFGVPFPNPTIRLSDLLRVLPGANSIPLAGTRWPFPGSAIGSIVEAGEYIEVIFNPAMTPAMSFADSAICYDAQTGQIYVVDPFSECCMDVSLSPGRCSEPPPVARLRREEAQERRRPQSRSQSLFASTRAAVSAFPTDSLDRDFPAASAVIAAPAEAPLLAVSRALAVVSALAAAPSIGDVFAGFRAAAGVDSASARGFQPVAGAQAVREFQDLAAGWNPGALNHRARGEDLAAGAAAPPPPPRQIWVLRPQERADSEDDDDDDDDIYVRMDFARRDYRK

[4] = target: HA-tagged BMPRII long form (HA-BMPRII-LF) (human) (UniProt Q13873); assay: pull-down; surface biotinylation of transfected HEK293T cells (Sulfo-NHS-SS-Biotin), lysis in RIPA buffer2, pull-down of biotinylated surface proteins with streptavidin sepharose overnight; Western blot

Molecule: endogenous Smad1 (immortalised human myoblasts) (from UniProt Q15797 1-465)
binding [1]: binds | binding [2]: binds

binding [3]: binds
Molecule: FLAG-tagged Smad1 (FLAG-Smad1) (from UniProt Q15797 1-465)

Molecule: endogenous BMPRII (immortalised human myoblasts) (from UniProt Q13873 27-1038) (receptor)
binding [1]: binds | binding [2]: binds

binding [4]: no binding
Molecule: IRS1-myc (from UniProt P35569 1-1233)

binding [4]: binds
B1: myc-tagged IRS4 (IRS4-myc), wild type (protein, UniProt Q9Z0Y7 1-1216)
chain: T2 sequence
